For 17 molecules, AC50 results are on record in PubChem BioAssay AID493014 (National Center for Advancing Translational Sciences (NCATS), 2011).

The other results are listed elsewhere or left out. The main result of the screen is listed elsewhere. These columns were measured beside it and carry no call. Most of these compounds were active or inconclusive in the main read-out, so they are no random draw. Words in brackets tell the shape of the fitted curve; partial curves, single points and poor fits give uncertain potencies.

The nature of the assay: qHTS Assay to Find Inhibitors of Chronic Active B-Cell Receptor Signaling. The following applies: ABC-DLBCL IkBa-CBG/CBR reporter, luminescence ratio (green luciferase fused to IkBa over red control in TMD8 lymphoma cells), 4 h; measured here: CBR red luminescence, cell number. In a few lines:
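TMD8 human ABC-DLBCL cells with doxycycline-inducible IκBα–green luciferase fusion and unfused red luciferase, in 0.5% FBS medium; compounds up to 46 uM, 4 h at 37C. Green/red luminescence ratio, filter-overlap corrected, fitted to concentration-response curves.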
In the case of `CC(C)OCCCNC(=O)c1cccs1`, the AC50 was 35.5 µM [rising, single point]. Consider `COc1ccc(S(=O)(=O)N2CCOCC2)cc1NC(=O)C1CCCN1C(=O)c1cccs1` (configuration not stated), for which the AC50 is 29.1 µM [rising, partial curve, poor fit]. For `COc1ccc(C(=O)/C(=C/c2cccs2)c2nc3ccccc3o2)cc1`, the AC50 was 0.259 µM [falling, full curve, poor fit].

For `CCOC(=O)c1c(C)oc2c1c(C=NCCO)c(O)c1ccccc12`, the AC50 is 35.5 µM [falling, single point].

Consider `COc1ccc2[nH]c3c(c2c1)CCN1C(=O)C(CC(=O)NCC24CC5CC(CC(C5)C2)C4)C[C@H](C(=O)N2CCOCC2)[C@@]31CCC1CCCC1` (some centres not stated), for which the AC50 was 1.03 µM [rising, partial curve]. The same measure for `COc1cccc(-n2nnnc2SCC(=O)N2CCCc3ccccc32)c1`: 11.2 µM [falling, partial curve, poor fit]. Next, `CC(C)=CCC/C(C)=C/CNC(=O)C[C@H]1C[C@H](C(=O)N2CCOCC2)[C@@]2(C)c3[nH]c4cc(CCC(=O)N(C)C)ccc4c3CCN2C1=O`: 9.2 µM [falling, partial curve]. The same measure for `O=C(COC(=O)c1ccccc1SCC(=O)N1CCCC1)NC1CCCCC1`: 9.2 µM [rising, partial curve]; for `CCc1nc2oc3ccccc3c(=O)c2cc1C(=O)OC`: 17.8 µM [rising, partial curve, poor fit]. In the case of `O=C(NCC(c1ccco1)N1CCN(c2ccc(F)cc2)CC1)C(=O)NC1CC1` (configuration not stated), the AC50 was 0.92 µM [rising, full curve, poor fit].

With `O=C(NCCC1CCCCN1S(=O)(=O)c1cccs1)C(=O)Nc1ccc(F)cc1F` (configuration not stated), the AC50 was 13 µM [falling, partial curve, poor fit]. For `COc1ccc2oc(C(=O)NC3(C)CCS(=O)(=O)C3)c(C)c2c1` (configuration not stated), the half-maximal activity concentration (AC50) is 10.3 µM [rising, partial curve, poor fit]. The same measure for `COc1ccccc1OCCSc1nc2ccccc2n1CCO`: 10 µM [falling, partial curve]; for `COCCNC(=O)c1nc2ccccc2s1`: 23.1 µM [falling, partial curve].

For `Cc1ccc(C(=O)N/C(=C\c2ccc(-c3ccc([N+](=O)[O-])cc3)o2)C(=O)NC2CCS(=O)(=O)C2)cc1` (configuration not stated), the AC50 was 7.31 µM [falling, partial curve]. The same measure for `C=C(C)c1cccc(C(C)(C)NC(=O)NCc2ccc(OC)c(OC)c2)c1`: 35.5 µM [falling, single point]; for `O=C(Nc1cccc(S(=O)(=O)N2CCCC2)c1)c1ccc2c(=O)n3c(nc2c1)CCCCC3`: 16.4 µM [falling, partial curve].
